Results are given in words; binding and its absence hold for the method and conditions named. Some entries that bind do so weakly or less than the wild type.
Assays:
[1] = target: cynomolgus monkey CD47-Fc (cynomolgus monkey); assay: direct titration ELISA, FIG. 3
[2] = target: cynomolgus monkey CD47-Fc (cynomolgus monkey); assay: direct titration ELISA, FIG. 11B
[3] = target: cynomolgus monkey CD47-Fc (cynomolgus monkey); assay: direct titration ELISA, FIG. 18B
[4] = target: cynomolgus monkey CD47-Fc (cynomolgus monkey); assay: direct specificity ELISA, IgG 1 µg/ml, FIG. 5B
[5] = target: cynomolgus monkey CD47 on transfected CHO-K1 cells (cynomolgus monkey); assay: flow cytometry, cyno CD47-transfected CHO-K1, FIG. 6A
[6] = target: cynomolgus monkey CD47-Fc (cynomolgus monkey); assay: direct specificity ELISA, IgG 1 µg/ml, FIG. 5A
[7] = target: cynomolgus monkey CD47-Fc (cynomolgus monkey); assay: direct specificity ELISA, IgG 10 µg/ml, FIG. 13B
[8] = target: cynomolgus monkey CD47-Fc (cynomolgus monkey); assay: direct titration ELISA, FIG. 9B
[9] = target: cynomolgus monkey CD47-Fc (cynomolgus monkey); assay: direct specificity ELISA, IgG 10 µg/ml, FIG. 13A
[10] = target: cynomolgus monkey CD47-Fc (cynomolgus monkey); assay: summary of the ELISAs above
[11] = target: cynomolgus monkey CD47-Fc (cynomolgus monkey); assay: direct specificity ELISA, IgG 1 µg/ml, FIG. 5C

Binder | binding [2] | binding [5] | also measured
mVH/mVL (chimeric VxP037) in human IgG1null format (antibody, V domains shown) VH: EVQLQQFGAELVKPGASMKLSCKASGYTFTNYYVFWVKQRPGQGLEWIGDINPVNGDTNFNEKFKNKATLTVDKSSTTTYLQLSSLTSEDSAVYYCTRGGYTMDYWGQGTLVTVSS VL: DVVMTQTPLSLSVSLGDQASISCRSSQSLVHSNGNTYLHWYLQKPGQSPKLLIYKVSYRFSGVPDRFSGSGSGTDFTLKISRVEAEDLGVYFCSQNTHVPRTFGQGTKVEIK | binds | binds | binding [1]: binds; binding [3]: binds; binding [4]: binds
mVH/mVL (chimeric VxP037) in human IgG4(S228P) format (antibody, V domains shown) VH: EVQLQQFGAELVKPGASMKLSCKASGYTFTNYYVFWVKQRPGQGLEWIGDINPVNGDTNFNEKFKNKATLTVDKSSTTTYLQLSSLTSEDSAVYYCTRGGYTMDYWGQGTLVTVSS VL: DVVMTQTPLSLSVSLGDQASISCRSSQSLVHSNGNTYLHWYLQKPGQSPKLLIYKVSYRFSGVPDRFSGSGSGTDFTLKISRVEAEDLGVYFCSQNTHVPRTFGQGTKVEIK |  | binds | 
mVH/mVL (chimeric VxP037) in human IgG1 format (antibody, V domains shown) VH: EVQLQQFGAELVKPGASMKLSCKASGYTFTNYYVFWVKQRPGQGLEWIGDINPVNGDTNFNEKFKNKATLTVDKSSTTTYLQLSSLTSEDSAVYYCTRGGYTMDYWGQGTLVTVSS VL: DVVMTQTPLSLSVSLGDQASISCRSSQSLVHSNGNTYLHWYLQKPGQSPKLLIYKVSYRFSGVPDRFSGSGSGTDFTLKISRVEAEDLGVYFCSQNTHVPRTFGQGTKVEIK |  |  | binding [6]: binds
D-H3 in human IgG4(S228P) format (antibody, V domains shown) VH: EVQLVQSGAEVKKPGESLKISCKGSGYSFTNYYIFWVRQMPGKGLEWMGDINPVNGDTNYSPSFQGQVTISADKSISTAYLQWSSLKASDTAMYYCARGGYTPDYWGQGTLVTVSS VL: DIVMTQSPLSLPVTPGEPASISCRSSQSLLHSNGYNYLHWYLQKPGQSPQLLIYKGSNRFSGVPDRFSGSGSGTDFTLKISRVEAEDVGVYYCSQNLHVPRTFGQGTKVEIK |  | binds | 
A-D5.12 in human IgG1null format (antibody, V domains shown) VH: EVQLVQSGAEVKKPGESLKISCKGSGYSFTNYYIFWVRQMPGKGLEWMGIINPVDGDTRYNPSFQGQVTISADKSISTAYLQWSSLKASDTAMYYCARGGYTMDRWGQGTLVTVSS VL: DIVMTQSPLSLPVTPGEPASISCRSSQSLLHSNGYNYLHWYLQKPGQSPQLLIYKVSNRLSGVPDRFSGSGSGTDFTLKISRVEAEDVGVYYCFQNTHTPRTFGQGTKVEIK | binds |  | 
A-D5.16 in human IgG1null format (antibody, V domains shown) VH: EVQLVQSGAEVKKPGESLKISCKGSGYSFTNYYIFWVRQMPGKGLEWMGIINPVDGDTRYSPSFQGQVTISADKSISTAYLQWSSLKASDTAMYYCARGGYTMDRWGQGTLVTVSS VL: DIVMTQSPLSLPVTPGEPASISCRSSQSLLHSAGYNYLHWYLQKPGQSPQLLIYKVSNRLSGVPDRFSGSGSGTDFTLKISRVEAEDVGVYYCFQNTHTPRTFGQGTKVEIK | binds |  | binding [3]: binds; binding [7]: binds
A-D5.11 in human IgG1null format (antibody, V domains shown) VH: EVQLVQSGAEVKKPGESLKISCKGSGYSFTNYYIFWVRQMPGKGLEWMGIINPVDGDTNYNPSFQGQVTISADKSISTAYLQWSSLKASDTAMYYCARGGYTMDRWGQGTLVTVSS VL: DIVMTQSPLSLPVTPGEPASISCRSSQSLLHSNGYNYLHWYLQKPGQSPQLLIYKVSNRLSGVPDRFSGSGSGTDFTLKISRVEAEDVGVYYCFQNTHTPRTFGQGTKVEIK | binds |  | 
A-D5.14 in human IgG1null format (antibody, V domains shown) VH: EVQLVQSGAEVKKPGESLKISCKGSGYSFTNYYIFWVRQMPGKGLEWMGIINPVDGDTRYSPSFQGQVTISADKSISTAYLQWSSLKASDTAMYYCARGGYTMDRWGQGTLVTVSS VL: DIVMTQSPLSLPVTPGEPASISCRSSQSLLHSSGYNYLHWYLQKPGQSPQLLIYKVSNRLSGVPDRFSGSGSGTDFTLKISRVEAEDVGVYYCFQNTHTPRTFGQGTKVEIK | binds |  | 
A-D5.15 in human IgG1null format (antibody, V domains shown) VH: EVQLVQSGAEVKKPGESLKISCKGSGYSFTNYYIFWVRQMPGKGLEWMGIINPVDGDTRYSPSFQGQVTISADKSISTAYLQWSSLKASDTAMYYCARGGYTMDRWGQGTLVTVSS VL: DIVMTQSPLSLPVTPGEPASISCRSSQSLLHSGGYNYLHWYLQKPGQSPQLLIYKVSNRLSGVPDRFSGSGSGTDFTLKISRVEAEDVGVYYCFQNTHTPRTFGQGTKVEIK | binds |  | 
G-B6 in human IgG4(S228P) format (antibody, V domains shown) VH: EVQLVQSGAEVKKPGESLKISCKGSGYSFTNYYIFWVRQMPGKGLEWIGDINPVNGDTNFSPSFQGQVTISADKSISTAYLQWSSLKASDTAMYYCARGGYTMDKWGQGTLVTVSS VL: DIVMTQSPLSLPVTPGEPASISCRSSQSLVHSNGYTYLHWYLQKPGQSPQLLIYKGSYRASGVPDRFSGSGSGTDFTLKISRVEAEDVGVYYCSQNTQTPRTFGQGTKVEIK |  | binds | 
A-D5.16-DI in human IgG1null format (antibody, V domains shown) VH: EVQLVQSGAEVKKPGESLKISCKGSGYSFTNYYIFWVRQMPGKGLEWMGIINPVDGDTRYSPSFQGQVTISADKSISTAYLQWSSLKASDTAMYYCARGGYTMDRWGQGTLVTVSS VL: DIVMTQSPLSLPVTPGEPASISCRSSQSLLHSAGYNYLHWYLQKPGQSPQLLIYKVSNRFSGVPDRFSGSGSGTDFTLKISRVEAEDAGVYYCFQNTHTPRTFGQGTKVEIK |  |  | binding [3]: binds
A-D5.4 in human IgG1null format (antibody, V domains shown) VH: EVQLVQSGAEVKKPGESLKISCKGSGYTFTNYYIFWVRQMPGKGLEWMGIINPVDGDTNYNPSFQGQVTISADKSISTAYLQWSSLKASDTAMYYCARGGYTMDRWGQGTLVTVSS VL: DIVMTQSPLSLPVTPGEPASISCRSSQSLLHSNGYNYLHWYLQKPGQSPQLLIYKVSNRLSGVPDRFSGSGSGTDFTLKISRVEAEDVGVYYCFQNTHTPRTFGQGTKVEIK |  |  | binding [8]: binds; binding [9]: binds
A-D5.10 in human IgG1null format (antibody, V domains shown) VH: EVQLVQSGAEVKKPGESLKISCKGSGYTFTNYYIFWVRQMPGKGLEWMGIINPVDGDTNYNPSFQGQVTISADKSISTAYLQWSSLKASDTAMYYCARGGYTMDRWGQGTLVTVSS VL: DIVMTQSPLSLPVTPGEPASISCRSSQSLLHSQGYTYLHWYLQKPGQSPQLLIYKVSNRLSGVPDRFSGSGSGTDFTLKISRVEAEDVGVYYCFQQTHTPRTFGQGTKVEIK |  |  | binding [8]: binds
A-D5 in human IgG4(S228P) format (antibody, V domains shown) VH: EVQLVQSGAEVKKPGESLKISCKGSGYTFTNYYIFWVRQMPGKGLEWMGIINPVDGDTNYNPSFQGQVTISADKSISTAYLQWSSLKASDTAMYYCARGGYTMDRWGQGTLVTVSS VL: DIVMTQSPLSLPVTPGEPASISCRSSQSLLHSNGYTYLHWYLQKPGQSPQLLIYKVSNRLSGVPDRFSGSGSGTDFTLKISRVEAEDVGVYYCFQNTHTPRTFGQGTKVEIK |  | binds | 

Continued, in another order:

binding [2] | binding [5] | Binder | also measured
binds |  | A-D5.17 in human IgG1null format (antibody, V domains shown) VH: EVQLVQSGAEVKKPGESLKISCKGSGYSFTNYYIFWVRQMPGKGLEWMGIINPVDGDTRYSPSFQGQVTISADKSISTAYLQWSSLKASDTAMYYCARGGYTMDRWGQGTLVTVSS VL: DIVMTQSPLSLPVTPGEPASISCRSSQSLLHSTGYNYLHWYLQKPGQSPQLLIYKVSNRLSGVPDRFSGSGSGTDFTLKISRVEAEDVGVYYCFQNTHTPRTFGQGTKVEIK | 
binds |  | A-D5.13 in human IgG1null format (antibody, V domains shown) VH: EVQLVQSGAEVKKPGESLKISCKGSGYSFTNYYIFWVRQMPGKGLEWMGIINPVDGDTRYSPSFQGQVTISADKSISTAYLQWSSLKASDTAMYYCARGGYTMDRWGQGTLVTVSS VL: DIVMTQSPLSLPVTPGEPASISCRSSQSLLHSNGYNYLHWYLQKPGQSPQLLIYKVSNRLSGVPDRFSGSGSGTDFTLKISRVEAEDVGVYYCFQNTHTPRTFGQGTKVEIK | 
 | binds | F-E7 in human IgG4(S228P) format (antibody, V domains shown) VH: EVQLVQSGAEVKKPGESLKISCKGSGYSFTNYYIFWVRQMPGKGLEWMGIINPVNGDTNYNPSFQGQVTISADKSISTAYLQWSSLKASDTAMYYCARGGYTMGKWGQGTLVTVSS VL: DIVMTQSPLSLPVTPGEPASISCRSSQSLVHSNGNTYLDWYLQKPGQSPQLLIYKGSYRFSGVPDRFSGSGSGTDFTLKISRVEAEDVGVYYCSQATHTPRTFGQGTKVEIK | 
 | binds | A-D5 in human IgG1null format (antibody, V domains shown) VH: EVQLVQSGAEVKKPGESLKISCKGSGYTFTNYYIFWVRQMPGKGLEWMGIINPVDGDTNYNPSFQGQVTISADKSISTAYLQWSSLKASDTAMYYCARGGYTMDRWGQGTLVTVSS VL: DIVMTQSPLSLPVTPGEPASISCRSSQSLLHSNGYTYLHWYLQKPGQSPQLLIYKVSNRLSGVPDRFSGSGSGTDFTLKISRVEAEDVGVYYCFQNTHTPRTFGQGTKVEIK | binding [10]: binds; binding [1]: binds; binding [11]: binds
binds |  | A-D5.18 in human IgG1null format (antibody, V domains shown) VH: EVQLVQSGAEVKKPGESLKISCKGSGYSFTNYYIFWVRQMPGKGLEWMGIINPVDGDTRYSPSFQGQVTISADKSISTAYLQWSSLKASDTAMYYCARGGYTMDRWGQGTLVTVSS VL: DIVMTQSPLSLPVTPGEPASISCRSSQSLLHSNAYNYLHWYLQKPGQSPQLLIYKVSNRLSGVPDRFSGSGSGTDFTLKISRVEAEDVGVYYCFQNTHTPRTFGQGTKVEIK | 

Reference: patent US20200277375A1
